Measurements: PubChem BioAssay AID2685 (National Center for Advancing Translational Sciences (NCATS), 2010)
Some of the results follow. Shown are side measurements of this screen, not its main read-out; they come without a call. Most of these compounds were active or inconclusive in the main read-out, so they are no random draw. Words in brackets tell the shape of the fitted curve; partial curves, single points and poor fits give uncertain potencies.

Assay: qHTS Assay for Lipid Storage Modulators in Drosophila S3 Cells;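 on cell number change: cells counted by Cell Tracker Red CMTPX staining in the red channel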
Conditions: BODIPY lipid droplet fluorescence, 18-24 h; for cell number change: measured here: cell count max response, cells fed with added oleic acid
Procedure, shortened: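 Drosophila S3 cells got compounds at several concentrations plus oleic acid (400 uM solution). Laser-scanning cytometry with 488 nm excitation read lipid droplets at 500-530 nm and cells at 575-640 nm. Percent activity was relative to 20 uM Triacsin C.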

[1] = measured here: cell number channel AC50, cells fed with added oleic acid
[2] = measured here: lipid fluorescence (Fed channel) AC50, cells fed with added oleic acid

CCn1c(-c2cc(-c3cc(OC)ccc3OC)nc3ccccc23)n[nH]c1=S
cell number change: 113%
AC50 [1]: 9.2 µM [rising, partial curve]
AC50 [2]: 20.6 µM [rising, partial curve]

CCOc1ccc(NC(=O)CN(C)C(=O)c2cc([N+](=O)[O-])ccc2N2CCOCC2)cc1OCC
AC50 [1]: 6.51 µM [falling, single point]
AC50 [2]: 3.26 µM [falling, full curve, poor fit]

NS(=O)(=O)c1ccc(CCNC(=O)c2ccc(Cl)nc2)cc1
cell number change: 24.6%
AC50 [2]: 0.731 µM [falling, partial curve, poor fit]

O=C(COc1ncnc2cc(Cl)ccc12)c1ccccc1
cell number change: 31.1%
AC50 [1]: 0.517 µM [rising, full curve, poor fit]

C[C@H](NC(=O)c1ccccc1Cl)C(=O)NCCc1ccc(S(N)(=O)=O)cc1
cell number change: 24.3%
AC50 [2]: 6.51 µM [falling, partial curve, poor fit]

Cc1ccc(S(=O)(=O)N2CCN(C(=O)COC(=O)COc3cccc4c3OC(C)(C)C4)CC2)cc1
cell number change: -14.4%
AC50 [1]: 0.092 µM [falling, full curve, poor fit]
AC50 [2]: 3.66 µM [falling, full curve]

COc1ccc2c3c(c(=O)oc2c1)C1O[C@](c2ccsc2)(Cc2cc(C#N)ccc21)O3
cell number change: 13.8%
AC50 [2]: 5.31 µM [rising, single point]

Cc1noc(C)c1S(=O)(=O)N(CC(=O)N1CCCC1)c1ccc(C(C)C)cc1
cell number change: 34.9%
AC50 [1]: 29.1 µM [rising, single point]
AC50 [2]: 29.1 µM [rising, single point]

CCCCC(=O)NC(NC(=O)CCCC)c1ccc(OCCC)c(OC)c1
cell number change: -26.8%
AC50 [1]: 0.651 µM [falling, full curve, poor fit]
AC50 [2]: 23.1 µM [rising, single point]

N#Cc1nc(-c2ccccc2Cl)oc1NCC1CCCO1 (stereo not given)
cell number change: 4.05%
AC50 [2]: 0.184 µM [falling, full curve, poor fit]

CC1(C)C(=O)Nc2ccccc2N1C(=O)COC(=O)c1ccc(NC(N)=O)cc1
cell number change: 14%

CCc1nnc(NC(=O)CN2CCN(Cc3cccc(F)c3)CC2)s1
cell number change: 20.5%
AC50 [2]: 6.51 µM [rising, partial curve, poor fit]

Cc1csc(NC(=O)c2nn(C)c(C)c2[N+](=O)[O-])n1
cell number change: -11.5%
AC50 [1]: 3.26 µM [falling, single point]
AC50 [2]: 20.6 µM [rising, single point]

CN(CC(=O)Nc1ccc(F)cc1)CC(=O)N(C)C1(C#N)CCCCC1
cell number change: -10.2%
AC50 [2]: 0.731 µM [rising, single point]

c1ccc2c(c1)ncn2CCC1CCCCC1
cell number change: -33.7%
AC50 [1]: 18.4 µM [falling, single point]

N#Cc1nc(-c2cccs2)oc1NCc1ccc2c(c1)OCO2
cell number change: -15.3%

Cc1ccc(N/C=C2\C(=O)N(c3ccc(F)cc3F)C(c3cccnc3)S2(=O)=O)cc1 (stereo not given)
cell number change: 12.1%

CCN(C1CCCCC1)S(=O)(=O)CCNC(=O)c1ccccc1
AC50 [2]: 1.84 µM [rising, partial curve, poor fit]

COCCCNC(=S)N/N=C/c1ccc2c(c1)OCO2
cell number change: 19.1%
AC50 [2]: 1.16 µM [rising, partial curve, poor fit]

O=C(COc1ccc(Br)cc1)Nc1ccccc1C(=O)N1CCOCC1
cell number change: 16.6%
AC50 [2]: 0.092 µM [rising, partial curve, poor fit]

CCOc1cccc(-c2nnc3n2N=C(c2cc(OC)ccc2OC)CS3)c1
cell number change: -34.7%
AC50 [1]: 3.26 µM [falling, partial curve]
AC50 [2]: 9.2 µM [falling, partial curve]

O=S(=O)(c1ccc2ccccc2c1)N1CCOCC1
cell number change: 2.38%
AC50 [2]: 16.4 µM [falling, partial curve]

O=C(NCCCn1ccnc1)C1CCCN(S(=O)(=O)c2ccc(F)cc2)C1 (stereo not given)
AC50 [2]: 6.51 µM [rising, single point]

CSc1nc(N2CCOCC2)c2c(c1C#N)CCCCC2
AC50 [2]: 6.51 µM [rising, single point]

Cc1ccc(-n2nc3c(N4CCC(C(=O)NCCc5cccs5)CC4)nnc(C)c3c2C)cc1
cell number change: 80%
AC50 [1]: 29.1 µM [rising, single point]

CCCCOC(=O)Oc1ccc2c(=O)c(Oc3cc(C)cc(C)c3)coc2c1
cell number change: 27.4%

CCOc1ccc(NC(=O)CN(C)C(=O)c2cn3ccccc3n2)cc1OCC
AC50 [1]: 3.66 µM [rising, partial curve]
AC50 [2]: 4.11 µM [rising, partial curve, poor fit]

COC(=O)Cn1c(=O)n(CCc2ccccc2)c(=O)c2c3c(sc21)CCCC3
AC50 [1]: 0.517 µM [rising, full curve]
AC50 [2]: 2.91 µM [rising, partial curve]

Cc1oc(C(=O)O)cc1COc1cccc2cccnc12
AC50 [2]: 7.31 µM [falling, partial curve]

Cc1c(C(c2ccc(O)cc2)c2c(C)n(C)n(-c3ccccc3)c2=O)c(=O)n(-c2ccccc2)n1C
AC50 [1]: 0.103 µM [falling, full curve]

Cc1ccc(N=Nc2ccc3ccccc3c2O)cc1
AC50 [2]: 0.731 µM [falling, full curve, poor fit]

CCSc1nc(C)c(CC)c(C)c1C(N)=O
cell number change: -20%
AC50 [2]: 5.17 µM [falling, full curve]

Cc1ccccc1-c1nc2sc3c(c2c(=O)n1N)CCCC3
cell number change: 38.9%
AC50 [1]: 29.1 µM [rising, single point]
AC50 [2]: 29.1 µM [rising, single point]

COc1ccc(NC(=S)NC2CC3CCC2C3)c(OC)c1 (stereo not given)
cell number change: 35.1%
AC50 [1]: 7.31 µM [rising, partial curve]

COc1ccc(C(=O)NCc2ccc3c(c2)OCO3)cc1
cell number change: 40.6%
AC50 [1]: 0.082 µM [rising, full curve]
AC50 [2]: 0.103 µM [rising, full curve, poor fit]

Cc1noc(C)c1CSc1nc2[nH]ncc2c(=O)n1-c1ccccc1
cell number change: -22.4%
AC50 [2]: 9.2 µM [falling, partial curve]
